No constants are given. Whether binding was seen depends on the method and setting. Binding seen in cells or lysates may run through a third protein. Some binding calls cover weakened binding; strength is not graded here.
How the values were obtained:
[1] = target: T1, activating transcription factor 3 (ATF3), primary mouse HSCs (mouse (endogenous in primary HSCs)) (UniProt Q60765); experiment: co-IP; co-immunoprecipitation in primary HSCs (Supplementary Fig. 10b); whole cell lysate, immunoblot
T1 sequence: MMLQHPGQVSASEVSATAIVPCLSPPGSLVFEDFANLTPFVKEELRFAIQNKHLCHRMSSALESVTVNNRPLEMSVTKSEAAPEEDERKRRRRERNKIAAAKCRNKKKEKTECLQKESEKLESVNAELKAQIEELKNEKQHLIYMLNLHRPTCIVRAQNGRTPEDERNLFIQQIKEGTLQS

Amino acid sequences for entries named in this document (tags omitted).
UniProt P84022: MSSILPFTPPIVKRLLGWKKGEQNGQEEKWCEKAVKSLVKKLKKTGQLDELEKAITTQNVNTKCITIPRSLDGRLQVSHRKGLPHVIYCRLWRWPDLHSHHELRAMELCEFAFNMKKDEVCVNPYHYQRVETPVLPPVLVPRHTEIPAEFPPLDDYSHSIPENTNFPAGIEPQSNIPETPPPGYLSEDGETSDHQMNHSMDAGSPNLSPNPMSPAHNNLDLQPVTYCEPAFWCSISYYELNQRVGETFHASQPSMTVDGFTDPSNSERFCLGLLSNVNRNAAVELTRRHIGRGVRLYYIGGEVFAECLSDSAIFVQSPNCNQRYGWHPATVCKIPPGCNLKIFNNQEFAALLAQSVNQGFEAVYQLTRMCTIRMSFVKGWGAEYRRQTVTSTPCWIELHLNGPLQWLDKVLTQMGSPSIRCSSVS
UniProt Q8BUN5: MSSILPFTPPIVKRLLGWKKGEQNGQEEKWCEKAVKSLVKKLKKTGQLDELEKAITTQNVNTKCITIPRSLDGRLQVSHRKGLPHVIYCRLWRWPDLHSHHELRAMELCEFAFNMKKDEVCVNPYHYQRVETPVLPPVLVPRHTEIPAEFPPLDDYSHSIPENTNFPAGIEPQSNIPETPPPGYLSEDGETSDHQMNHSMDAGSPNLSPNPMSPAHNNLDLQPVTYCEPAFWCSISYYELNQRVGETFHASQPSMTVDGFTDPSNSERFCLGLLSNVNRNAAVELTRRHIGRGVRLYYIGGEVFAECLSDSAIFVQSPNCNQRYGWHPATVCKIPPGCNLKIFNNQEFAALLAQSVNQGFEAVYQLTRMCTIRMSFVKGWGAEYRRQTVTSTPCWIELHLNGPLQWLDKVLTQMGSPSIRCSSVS

[2] = target: T2, activating transcription factor 3 (ATF3) (human (endogenous in LX-2)) (UniProt P18847); experiment: co-IP; ATF3 and SMAD3 antibodies used for co-immunoprecipitation with whole cell lysates of LX-2 cells treated with or without TGF-β; immunoblot
T2 sequence: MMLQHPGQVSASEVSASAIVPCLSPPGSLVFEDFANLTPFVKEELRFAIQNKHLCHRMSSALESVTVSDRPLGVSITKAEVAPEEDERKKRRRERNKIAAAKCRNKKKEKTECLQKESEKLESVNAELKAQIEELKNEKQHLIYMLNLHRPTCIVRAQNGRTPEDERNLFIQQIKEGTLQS

[3] = target: SMAD3 (human (endogenous in LX-2)) (UniProt P84022); experiment: as above
[4] = target: SMAD3, primary mouse HSCs (mouse (endogenous in primary HSCs)) (UniProt Q8BUN5); experiment: co-IP; co-immunoprecipitation in primary HSCs (Supplementary Fig. 10b); whole cell lysate, immunoblot

Molecule: SMAD3, primary mouse HSCs (from UniProt Q8BUN5 1-425)
- binding [1]: binds

Molecule: SMAD3 (from UniProt P84022 1-425)
- binding [2]: binds

B1: activating transcription factor 3 (ATF3) (protein, UniProt P18847 1-181)
chain: MMLQHPGQVSASEVSASAIVPCLSPPGSLVFEDFANLTPFVKEELRFAIQNKHLCHRMSSALESVTVSDRPLGVSITKAEVAPEEDERKKRRRERNKIAAAKCRNKKKEKTECLQKESEKLESVNAELKAQIEELKNEKQHLIYMLNLHRPTCIVRAQNGRTPEDERNLFIQQIKEGTLQS
- binding [3]: binds

B2: activating transcription factor 3 (ATF3), primary mouse HSCs (protein, UniProt Q60765 1-181)
chain: MMLQHPGQVSASEVSATAIVPCLSPPGSLVFEDFANLTPFVKEELRFAIQNKHLCHRMSSALESVTVNNRPLEMSVTKSEAAPEEDERKRRRRERNKIAAAKCRNKKKEKTECLQKESEKLESVNAELKAQIEELKNEKQHLIYMLNLHRPTCIVRAQNGRTPEDERNLFIQQIKEGTLQS
- binding [4]: binds
